{"source": "PubChem BioAssay AID504834", "about": "(National Center for Advancing Translational Sciences (NCATS), 2011)", "note": "About 22,000 (6.9%) of roughly 320,000 compounds were called active. Inconclusive results, whose numbers are uncertain, are shown with a selection of clear calls. Calls come from the whole dose curve; as a rule, active = well fitted inhibition curve with a large enough effect; inconclusive = small, poorly fitted or top-dose-only effect, or another doubt; inactive = no such curve, though single readings can be large or run the other way. Potencies of inconclusive entries are doubtful fits and often do not repeat. % is set by controls: 0 for no effect and ±100 for the full control effect; potency is the fitted concentration of half-maximal effect."}
{"experiment": "Primary qHTS for delayed death inhibitors of the malarial parasite plastid, 96 hour incubation", "settings": "P. falciparum luciferase reporter growth; series mostly up to 28.7 µM; activity change, negative = inhibition: at the top concentration", "outline": "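P. falciparum expressing integrated firefly luciferase, in erythrocytes at 2% hematocrit, 0.05% parasitemia, incubated with compounds 96 h at 37 C, 5% CO2. Growth inhibition read as loss of luminescence; two-generation exposure targets delayed-death apicoplast inhibitors.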"}
{"smiles": "COc1ccc([C@H]2C=C3CN(C(=O)OC(C)(C)C)S(=O)(=O)[C@H]3C[C@H]2OC(=O)c2ccc(C(F)(F)F)cc2)cc1", "Potency": "inconclusive: 11.7 µM [inhibitor, single point]"}
{"smiles": "CC(O)(CS(=O)(=O)Cc1ccccc1)C(=O)Nc1ccc(C(F)(F)F)cc1", "note": "(stereo not drawn)", "Potency": "inconclusive: 13.1 µM [inhibitor, partial curve, poor fit]"}
{"smiles": "COC(=O)CN1C(=O)N/C(=C/c2cc(OC)c(OC)cc2C)C1=O", "Potency": "inconclusive: 2.33 µM [inhibitor, partial curve, poor fit]"}
{"smiles": "CCCc1cc(=O)[nH]c(SCC(=O)N2CC3(C)CC2CC(C)(C)C3)n1", "note": "(stereo not drawn)", "Potency": "inconclusive: 18.5 µM [inhibitor, partial curve, poor fit]"}
{"smiles": "Cc1cc(CN(C)C(=O)c2ccc3nc(Cc4ccccc4F)oc3c2)n[nH]1", "activity change, negative = inhibition": "inactive: -17.8%"}
{"smiles": "CCCn1cnc2scc(-c3ccc(C)c(C)c3)c2c1=O", "Potency": "active: 10.4 µM"}
{"smiles": "CCc1n(CC(O)COCc2ccccc2)c2ccccc2[n+]1C", "note": "(stereo not drawn)", "Potency": "inconclusive: 16.5 µM [inhibitor, single point]"}
{"smiles": "COc1ccc(C(C)=O)cc1COC(=O)CNC(=O)c1cc(C)cc(C)c1", "activity change, negative = inhibition": "inactive: 34.1%"}
{"smiles": "c1cn2c(NC3CCCCC3)c(-c3ccc(SC4CCCCC4)cc3)nc2cn1", "Potency": "inconclusive: 3.29 µM [inhibitor, single point]"}
{"smiles": "CCOC(=O)c1c(CSc2ccccc2)n(C)c2cc(Br)c(O)c(CN(C)C)c12", "Potency": "inconclusive: 10.4 µM [inhibitor, single point]"}
{"smiles": "O=C(/C=C/Nc1ccccc1)c1ccccc1", "Potency": "active: 7.38 µM"}
{"smiles": "CCN(Cc1ccncc1)C(=O)c1cc(COc2ccc(F)cc2F)on1", "Potency": "inconclusive: 18.5 µM [inhibitor, single point]"}
{"smiles": "Cc1ccc(S(=O)(=O)N2CCOCC2)cc1NC(=O)COc1cccc(-n2cnnn2)c1", "Potency": "inconclusive: 3.29 µM [inhibitor, single point]"}
{"smiles": "CCOC(=O)Nc1sc2c(c1C#N)CCC(C)C2", "note": "(stereo not drawn)", "Potency": "inconclusive: 18.5 µM [inhibitor, single point]"}
{"smiles": "CCN(CC)CC(O)c1ccc(C2CCCC2)cc1", "note": "(stereo not drawn)", "Potency": "active: 13.1 µM"}
{"smiles": "CC(C)(C)C(=O)NC(=S)NNC(=O)c1ccc(Cl)cc1Cl", "Potency": "inconclusive: 10.4 µM [inhibitor, partial curve, poor fit]"}
{"smiles": "O=S(=O)(c1cccc2ccccc12)N1CCSC1", "Potency": "inconclusive: 13.1 µM [inhibitor, partial curve]"}
{"smiles": "CCOc1cc(/C=N/NC(=O)COc2ccccc2C)ccc1OC(=O)c1cccs1", "activity change, negative = inhibition": "inactive: 36%"}
{"smiles": "COc1ccc(-c2n[nH]c(C)c2-c2cnn(-c3ccccc3)c2)c(O)c1C", "Potency": "inconclusive: 18.5 µM [inhibitor, single point]"}
{"smiles": "COC(=O)c1ccc(C23CC4(C2)[C@H](CN(Cc2ccc(C(F)(F)F)cc2)[C@@H]4c2ccccc2)C3c2ccc(C(F)(F)F)cc2)cc1", "note": "(stereo partly drawn)", "Potency": "active: 10.4 µM"}
{"smiles": "O=C(CN1CCN(c2ccccn2)CC1)N(c1ccccc1)c1ccc2ccccc2c1", "Potency": "active: 5.22 µM"}
{"smiles": "CSc1ccc(/C=N/Nc2nc(C)cc(=O)[nH]2)cc1", "activity change, negative = inhibition": "inactive: 9.56%"}
{"smiles": "COc1ccccc1C(C)Nc1nc(-c2cccnc2)nc2ccccc12", "note": "(stereo not drawn)", "Potency": "inconclusive: 2.08 µM [inhibitor, full curve]"}
{"smiles": "O=C(CC(c1ccccc1)c1ccco1)Nc1nccs1", "note": "(stereo not drawn)", "Potency": "active: 9.28 µM"}
{"smiles": "CCOc1cc(C(=O)N/N=C/c2ccsc2)cc(OCC)c1OCC", "activity change, negative = inhibition": "inactive: -19.7%"}
{"smiles": "Oc1ccc(NCc2ccccc2OCc2ccccc2)cc1", "Potency": "inconclusive: 10.4 µM [inhibitor, single point]"}
{"smiles": "Cc1cc(C)cc(C(=O)NC(=S)Nc2cccnc2)c1", "activity change, negative = inhibition": "inactive: 22.2%"}
{"smiles": "CCCNc1nc(C)cc(-c2cc(C(=O)NC3CCCC3)on2)n1", "activity change, negative = inhibition": "inactive: -25.3%"}
{"smiles": "O=C(COC(=O)/C=C/c1ccccc1)NCc1ccccc1Cl", "activity change, negative = inhibition": "inactive: 29.9%"}
{"smiles": "CSCCC(NC(=O)COc1ccccc1)C(=O)N1CCCCCC1", "note": "(stereo not drawn)", "activity change, negative = inhibition": "inactive: -25.8%"}
{"smiles": "CC(C)(C)C(=O)NC(=S)Nc1ccc(S(=O)(=O)Nc2nccs2)cc1", "activity change, negative = inhibition": "inactive: -8.22% [at 5.75 µM]"}
{"smiles": "O=C1CCCc2oc3c(c21)CCCC3", "activity change, negative = inhibition": "inactive: 2.05%"}
{"smiles": "CC(C)N(C(=O)Cn1c(-c2cccnc2)ccc(C#N)c1=O)C(C)C", "Potency": "inconclusive: 9.28 µM [inhibitor, single point]"}
{"smiles": "COc1cc(CN(C(=S)NCC(=O)NC2CCCC2)C2CCCC2)cc(OC)c1OC", "Potency": "inconclusive: 2.33 µM [inhibitor, partial curve, poor fit]"}
{"smiles": "COc1cccc(NC(=O)CN(C)C(=O)C23CC4CC(CC(Cl)(C4)C2)C3)c1", "Potency": "inconclusive: 10.4 µM [inhibitor, single point]"}
{"smiles": "CC(C)(C)c1cc(Br)c(O)c(N=Nc2ccc(S(=O)(=O)N3CCOCC3)cc2)c1", "Potency": "active: 10.4 µM"}
{"smiles": "Cc1nn(-c2ccccc2)c2sc(C(=O)c3c(N)n(C)c(=O)n(C)c3=O)cc12", "Potency": "inconclusive: 4.65 µM [inhibitor, partial curve, poor fit]"}
{"smiles": "COc1ccc2c3c(cccc13)C(=O)CC2", "activity change, negative = inhibition": "inactive: 34.5%"}
{"smiles": "FC(F)(F)c1cccc(-c2nnc(-c3ccccc3)c(N3CCOCC3)n2)c1", "Potency": "inconclusive: 11.7 µM [inhibitor, single point]"}
{"smiles": "CCCCNC(=O)c1nn2c(C(F)(F)F)cc(-c3ccccc3)nc2c1Br", "activity change, negative = inhibition": "inactive: 78.5%"}
{"smiles": "O=C(Nc1ccc(-n2cnnn2)cc1)c1cn2ccccc2n1", "activity change, negative = inhibition": "inactive: 99.2%"}
{"smiles": "CC(=O)Nc1ccc(/C(C)=N/Nc2nc(Nc3cccc4ccccc34)nc(N3CCOCC3)n2)cc1", "Potency": "inconclusive: 10.4 µM [inhibitor, partial curve, poor fit]"}
{"smiles": "COC(=O)C(c1ccccc1)N(Cc1cccc(CN(C(C(=O)OC)c2ccccc2)S(C)(=O)=O)c1)S(C)(=O)=O", "note": "(stereo not drawn)", "Potency": "active: 10.4 µM"}
{"smiles": "Cc1c(Cl)cccc1NC(=O)COC(=O)c1c2c(nc3ccccc13)CCN(Cc1ccccc1)C2", "Potency": "active: 2.94 µM"}
{"smiles": "O=C(COC(=O)c1cccc(C(F)(F)F)c1)NCc1ccc(Cl)cc1", "Potency": "inconclusive: 18.5 µM [inhibitor, single point]"}
{"smiles": "CN(C(=O)c1ccc(NC(=O)Cc2ccc(NC(=O)C3CCCN(C(=O)C4CCC4)C3)cc2)cc1)C1CC1", "note": "(stereo not drawn)", "Potency": "inconclusive: 9.28 µM [inhibitor, partial curve]"}
{"smiles": "COc1cc(C(=O)Nc2cc(C(F)(F)F)ccc2-n2cncn2)cc(OC)c1OC", "Potency": "inconclusive: 18.5 µM [inhibitor, single point]"}
{"smiles": "COc1ccccc1N(CC(=O)NC1CCCC1)S(=O)(=O)c1ccc(C)cc1", "activity change, negative = inhibition": "inactive: 14.7%"}
{"smiles": "O=C(/C(=C(\\O)c1ccccc1)c1nc2ccccc2[nH]1)c1ccccc1", "Potency": "inconclusive: 0.828 µM [inhibitor, full curve]"}
{"smiles": "CCN1CCN(C(=O)c2nn(-c3ccc(OC)cc3)c(=O)c3c2c2ccccc2n3C)CC1", "activity change, negative = inhibition": "inactive: -26.7%"}
{"smiles": "CC(=O)c1sc2nc(-c3ccc(C)cc3)c3c(c2c1N)CCCC3", "Potency": "inconclusive: 18.5 µM [inhibitor, single point]"}
{"smiles": "CCOc1ccc(NC(=O)C2CCCN(S(=O)(=O)c3ccc4c(c3)CCCN4C(C)=O)C2)cc1", "note": "(stereo not drawn)", "Potency": "inconclusive: 1.31 µM [inhibitor, full curve, poor fit]"}
{"smiles": "CC(=O)Nc1ccc(C2NC(=O)CCC2[N+](=O)[O-])cc1", "note": "(stereo not drawn)", "activity change, negative = inhibition": "inactive: 24.1%"}
{"smiles": "COc1ccccc1N1CCN(/N=C/c2ccc(C(=O)O)cc2)CC1", "Potency": "inconclusive: 1.65 µM [inhibitor, single point]"}
{"smiles": "O=C(O)c1cccnc1Cl", "activity change, negative = inhibition": "inactive: 0%"}
{"smiles": "Nn1c(SCc2ccc(F)cc2)nnc1-c1ccccn1", "activity change, negative = inhibition": "inactive: 41.9%"}
{"smiles": "CC(Oc1ccccc1)C(=O)Nc1ccc(F)c(S(=O)(=O)N2CCOCC2)c1", "note": "(stereo not drawn)", "Potency": "inconclusive: 13.1 µM [inhibitor, single point]"}
{"smiles": "CCOc1ccc(C(C)=O)cc1CN1c2ccc(S(N)(=O)=O)cc2CC1C", "note": "(stereo not drawn)", "activity change, negative = inhibition": "inactive: -12.5%"}
{"smiles": "COc1cc(/C=N/Nc2nc(=O)[nH]nc2C)cc([N+](=O)[O-])c1O", "Potency": "active: 0.657 µM"}
{"smiles": "Nc1nc(CSC(=S)N2CCN(c3ccccc3)CC2)nc(Nc2ccccc2)n1", "Potency": "inconclusive: 9.28 µM [inhibitor, single point]"}
{"smiles": "CC1CC(C)CN(C(=O)C(C)N(C)CC(=O)Nc2ccccc2Cl)C1", "note": "(stereo not drawn)", "activity change, negative = inhibition": "inactive: -38.6%"}
{"smiles": "Cc1cc(S(=O)(=O)NC(C)C)ccc1OCC(=O)NCc1ccccc1", "Potency": "inconclusive: 0.294 µM [inhibitor, full curve, poor fit]"}
{"smiles": "CCc1ccccc1S(=O)(=O)Cc1ccc(C(=O)N2CCN(c3ccccc3OC)CC2)o1", "Potency": "inconclusive: 11.7 µM [inhibitor, single point]"}
{"smiles": "O=C(N/N=C/c1nn(-c2ccccc2)cc1-c1ccc(Cl)cc1)c1ccncc1", "Potency": "inconclusive: 2.62 µM [inhibitor, full curve, poor fit]"}
{"smiles": "CCOC(=O)c1c(C)c(C(=O)Nc2ccc3c(c2)OCCO3)c(C)n1CC", "Potency": "inconclusive: 5.86 µM [inhibitor, partial curve, poor fit]"}
{"smiles": "CC1C=CCC2C(=O)N(c3ccccc3OC(=O)c3ccco3)C(=O)C12", "note": "(stereo not drawn)", "activity change, negative = inhibition": "inactive: -9.07%"}
{"smiles": "CC1CN=C(N(Cc2ccccc2)C(=O)Nc2ccccc2)S1", "note": "(stereo not drawn)", "activity change, negative = inhibition": "inactive: -46.9%"}
{"smiles": "Cc1ccnc(NS(=O)(=O)c2ccc(NC(=O)CN3C(=O)c4ccccc4S3(=O)=O)cc2)n1", "activity change, negative = inhibition": "inactive: 18.4%"}
{"smiles": "O=C(N/N=C/c1ccco1)c1[nH]ncc1Br", "activity change, negative = inhibition": "inactive: -2.97%"}
{"smiles": "COc1ccc(-c2sc3ccc(N4CCOCC4)cc3c2C#CC(C)(C)O)cc1", "Potency": "active: 2.62 µM"}
{"smiles": "COc1ccc(COC(=O)C2=C(C)NC(=O)NC2c2cccc(OC)c2OC)cc1", "note": "(stereo not drawn)", "Potency": "inconclusive: 9.28 µM [inhibitor, single point]"}
{"smiles": "CCC(CC)c1nnc(NC(=O)CCc2ccccc2)s1", "activity change, negative = inhibition": "inactive: -57.6%"}
